These are yes or no findings as the source states them, for the method shown. In cells and extracts the contact can be indirect. Sequences can lack the tags named with a protein.
Target: T1, FLAG-tagged HPV51 Nu strain L2 (51NuL2-FLAG) (human papillomavirus type 51, Nu strain) (UniProt P26539)
T1 sequence: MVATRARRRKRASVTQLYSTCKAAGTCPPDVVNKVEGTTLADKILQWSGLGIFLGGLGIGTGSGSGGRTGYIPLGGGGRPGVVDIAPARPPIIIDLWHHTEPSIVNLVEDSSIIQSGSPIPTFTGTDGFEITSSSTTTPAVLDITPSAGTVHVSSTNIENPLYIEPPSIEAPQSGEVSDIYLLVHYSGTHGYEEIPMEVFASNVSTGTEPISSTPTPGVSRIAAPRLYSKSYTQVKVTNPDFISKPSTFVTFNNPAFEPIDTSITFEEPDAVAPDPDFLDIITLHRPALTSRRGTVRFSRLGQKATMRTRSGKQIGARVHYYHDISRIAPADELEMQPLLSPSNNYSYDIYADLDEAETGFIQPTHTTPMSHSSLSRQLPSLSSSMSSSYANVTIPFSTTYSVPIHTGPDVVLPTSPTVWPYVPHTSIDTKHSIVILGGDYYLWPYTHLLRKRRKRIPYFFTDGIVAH
Experiment: co-IP; FLAG-tagged L2 precipitated from lysates of transfected HEK293FT cells with anti-FLAG M2 agarose (IP buffer: 20 mM Tris-HCl pH 8.0, 10% glycerol, 5 mM MgCl2, 0.1% Tween 20, 0.1 M KCl, 0.5 mM DTT; 1 h, room temperature), eluted with 3xFLAG peptide; Western blot with anti-P880/894 (TRAPPC8) or anti-TTC15 (TRAPPC12)

The chains behind the UniProt entries cited, without tags or fusion partners.
UniProt Q9Y2L5: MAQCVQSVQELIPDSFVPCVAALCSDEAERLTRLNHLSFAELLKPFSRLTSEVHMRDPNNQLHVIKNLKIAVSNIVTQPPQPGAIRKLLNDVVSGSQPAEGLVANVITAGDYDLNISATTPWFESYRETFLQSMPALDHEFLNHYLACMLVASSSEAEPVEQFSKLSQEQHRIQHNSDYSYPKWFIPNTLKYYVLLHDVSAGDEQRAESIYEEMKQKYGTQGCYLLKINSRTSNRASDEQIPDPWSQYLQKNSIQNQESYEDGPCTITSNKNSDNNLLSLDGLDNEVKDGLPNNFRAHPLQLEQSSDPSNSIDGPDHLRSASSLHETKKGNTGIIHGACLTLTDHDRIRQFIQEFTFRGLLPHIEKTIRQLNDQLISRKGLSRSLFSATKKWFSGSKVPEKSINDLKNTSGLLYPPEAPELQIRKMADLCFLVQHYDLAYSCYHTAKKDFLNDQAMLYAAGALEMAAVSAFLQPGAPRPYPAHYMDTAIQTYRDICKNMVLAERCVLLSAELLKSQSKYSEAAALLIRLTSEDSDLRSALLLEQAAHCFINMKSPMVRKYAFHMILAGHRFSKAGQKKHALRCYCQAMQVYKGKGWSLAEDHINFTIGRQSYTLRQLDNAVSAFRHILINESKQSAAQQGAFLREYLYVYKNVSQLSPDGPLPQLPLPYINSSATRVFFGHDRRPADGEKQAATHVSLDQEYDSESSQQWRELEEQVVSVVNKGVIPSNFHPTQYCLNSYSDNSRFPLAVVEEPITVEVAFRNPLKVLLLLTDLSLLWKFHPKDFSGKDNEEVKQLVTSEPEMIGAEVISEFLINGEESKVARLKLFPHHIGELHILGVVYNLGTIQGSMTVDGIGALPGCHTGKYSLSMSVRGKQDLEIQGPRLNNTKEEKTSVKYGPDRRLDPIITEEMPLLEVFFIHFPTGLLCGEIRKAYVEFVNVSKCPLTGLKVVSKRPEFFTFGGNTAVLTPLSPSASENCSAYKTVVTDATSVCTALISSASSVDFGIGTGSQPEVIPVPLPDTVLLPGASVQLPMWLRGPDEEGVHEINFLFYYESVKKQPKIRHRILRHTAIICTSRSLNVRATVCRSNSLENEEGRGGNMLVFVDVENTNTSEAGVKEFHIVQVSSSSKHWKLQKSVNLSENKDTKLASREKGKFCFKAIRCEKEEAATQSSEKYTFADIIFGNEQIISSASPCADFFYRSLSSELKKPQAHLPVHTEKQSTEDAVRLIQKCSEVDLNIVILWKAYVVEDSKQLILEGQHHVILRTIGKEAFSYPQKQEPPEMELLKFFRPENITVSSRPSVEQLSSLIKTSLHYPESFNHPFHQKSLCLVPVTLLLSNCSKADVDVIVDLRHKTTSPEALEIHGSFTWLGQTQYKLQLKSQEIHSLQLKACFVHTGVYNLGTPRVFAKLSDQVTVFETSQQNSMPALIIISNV

With “transport protein particle complex subunit 8 (TRAPPC8) (from UniProt Q9Y2L5 1-1435)” the binding was “no binding”.

Source: publication PMC3828182
